Amino acid sequences for entries named in this document (tags omitted). A change or cut given only in a name is not applied to a line headed by its entry.
UniProt Q99640: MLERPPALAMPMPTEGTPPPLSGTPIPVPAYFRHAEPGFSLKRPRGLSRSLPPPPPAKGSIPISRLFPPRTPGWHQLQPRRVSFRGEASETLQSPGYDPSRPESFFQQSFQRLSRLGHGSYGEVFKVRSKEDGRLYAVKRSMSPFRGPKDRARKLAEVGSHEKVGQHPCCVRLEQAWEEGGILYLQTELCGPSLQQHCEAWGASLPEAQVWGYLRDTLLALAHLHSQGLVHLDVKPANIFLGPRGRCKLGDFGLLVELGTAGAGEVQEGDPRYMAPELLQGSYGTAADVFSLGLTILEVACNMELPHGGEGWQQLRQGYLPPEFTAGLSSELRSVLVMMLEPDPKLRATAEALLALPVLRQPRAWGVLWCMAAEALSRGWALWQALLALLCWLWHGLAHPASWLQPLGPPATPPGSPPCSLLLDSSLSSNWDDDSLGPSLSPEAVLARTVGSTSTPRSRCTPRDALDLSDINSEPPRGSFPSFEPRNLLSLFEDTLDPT
UniProt Q9BZM1: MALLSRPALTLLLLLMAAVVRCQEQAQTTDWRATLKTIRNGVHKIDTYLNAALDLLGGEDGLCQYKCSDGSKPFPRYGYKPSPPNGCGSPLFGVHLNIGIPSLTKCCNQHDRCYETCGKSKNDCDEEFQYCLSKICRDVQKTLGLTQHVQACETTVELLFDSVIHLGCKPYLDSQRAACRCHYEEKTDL
UniProt Q99447: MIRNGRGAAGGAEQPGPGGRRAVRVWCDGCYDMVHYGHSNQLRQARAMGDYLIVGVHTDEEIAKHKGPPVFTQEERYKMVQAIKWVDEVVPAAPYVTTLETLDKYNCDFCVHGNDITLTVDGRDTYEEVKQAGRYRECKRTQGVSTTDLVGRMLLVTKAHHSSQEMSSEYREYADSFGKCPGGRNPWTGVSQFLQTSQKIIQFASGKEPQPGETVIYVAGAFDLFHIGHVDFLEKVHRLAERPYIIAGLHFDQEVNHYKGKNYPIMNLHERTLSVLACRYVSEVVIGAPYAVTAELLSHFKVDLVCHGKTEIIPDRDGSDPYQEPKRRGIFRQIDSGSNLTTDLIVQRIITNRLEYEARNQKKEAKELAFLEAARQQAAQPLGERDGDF
UniProt P42338: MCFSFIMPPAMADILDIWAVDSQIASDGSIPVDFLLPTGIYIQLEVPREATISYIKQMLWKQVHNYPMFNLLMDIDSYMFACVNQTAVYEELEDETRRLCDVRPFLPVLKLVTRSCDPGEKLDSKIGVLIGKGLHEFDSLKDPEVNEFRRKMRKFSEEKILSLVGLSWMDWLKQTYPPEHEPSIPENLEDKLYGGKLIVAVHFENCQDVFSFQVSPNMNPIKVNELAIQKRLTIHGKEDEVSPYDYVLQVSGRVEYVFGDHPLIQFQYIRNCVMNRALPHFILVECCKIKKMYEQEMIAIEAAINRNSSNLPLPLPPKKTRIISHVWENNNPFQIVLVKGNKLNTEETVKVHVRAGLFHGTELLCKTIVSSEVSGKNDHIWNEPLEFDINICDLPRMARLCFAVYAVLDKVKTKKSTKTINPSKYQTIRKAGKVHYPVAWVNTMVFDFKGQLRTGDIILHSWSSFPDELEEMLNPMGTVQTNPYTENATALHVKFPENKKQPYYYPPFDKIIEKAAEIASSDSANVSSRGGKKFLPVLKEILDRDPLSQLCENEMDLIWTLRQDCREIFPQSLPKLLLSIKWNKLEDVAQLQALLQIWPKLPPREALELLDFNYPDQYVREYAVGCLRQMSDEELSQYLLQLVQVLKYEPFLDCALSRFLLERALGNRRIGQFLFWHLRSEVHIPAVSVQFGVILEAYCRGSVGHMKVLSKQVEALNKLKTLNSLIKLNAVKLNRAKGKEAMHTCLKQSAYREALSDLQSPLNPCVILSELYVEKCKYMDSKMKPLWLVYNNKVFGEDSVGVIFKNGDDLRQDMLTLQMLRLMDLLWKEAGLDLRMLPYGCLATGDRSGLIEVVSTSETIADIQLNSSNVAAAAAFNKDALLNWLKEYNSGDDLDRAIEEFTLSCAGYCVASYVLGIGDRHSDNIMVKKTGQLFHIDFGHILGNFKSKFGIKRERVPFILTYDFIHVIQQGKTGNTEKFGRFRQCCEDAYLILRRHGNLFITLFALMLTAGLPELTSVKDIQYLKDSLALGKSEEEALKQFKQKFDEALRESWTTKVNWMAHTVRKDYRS
UniProt Q504Q3: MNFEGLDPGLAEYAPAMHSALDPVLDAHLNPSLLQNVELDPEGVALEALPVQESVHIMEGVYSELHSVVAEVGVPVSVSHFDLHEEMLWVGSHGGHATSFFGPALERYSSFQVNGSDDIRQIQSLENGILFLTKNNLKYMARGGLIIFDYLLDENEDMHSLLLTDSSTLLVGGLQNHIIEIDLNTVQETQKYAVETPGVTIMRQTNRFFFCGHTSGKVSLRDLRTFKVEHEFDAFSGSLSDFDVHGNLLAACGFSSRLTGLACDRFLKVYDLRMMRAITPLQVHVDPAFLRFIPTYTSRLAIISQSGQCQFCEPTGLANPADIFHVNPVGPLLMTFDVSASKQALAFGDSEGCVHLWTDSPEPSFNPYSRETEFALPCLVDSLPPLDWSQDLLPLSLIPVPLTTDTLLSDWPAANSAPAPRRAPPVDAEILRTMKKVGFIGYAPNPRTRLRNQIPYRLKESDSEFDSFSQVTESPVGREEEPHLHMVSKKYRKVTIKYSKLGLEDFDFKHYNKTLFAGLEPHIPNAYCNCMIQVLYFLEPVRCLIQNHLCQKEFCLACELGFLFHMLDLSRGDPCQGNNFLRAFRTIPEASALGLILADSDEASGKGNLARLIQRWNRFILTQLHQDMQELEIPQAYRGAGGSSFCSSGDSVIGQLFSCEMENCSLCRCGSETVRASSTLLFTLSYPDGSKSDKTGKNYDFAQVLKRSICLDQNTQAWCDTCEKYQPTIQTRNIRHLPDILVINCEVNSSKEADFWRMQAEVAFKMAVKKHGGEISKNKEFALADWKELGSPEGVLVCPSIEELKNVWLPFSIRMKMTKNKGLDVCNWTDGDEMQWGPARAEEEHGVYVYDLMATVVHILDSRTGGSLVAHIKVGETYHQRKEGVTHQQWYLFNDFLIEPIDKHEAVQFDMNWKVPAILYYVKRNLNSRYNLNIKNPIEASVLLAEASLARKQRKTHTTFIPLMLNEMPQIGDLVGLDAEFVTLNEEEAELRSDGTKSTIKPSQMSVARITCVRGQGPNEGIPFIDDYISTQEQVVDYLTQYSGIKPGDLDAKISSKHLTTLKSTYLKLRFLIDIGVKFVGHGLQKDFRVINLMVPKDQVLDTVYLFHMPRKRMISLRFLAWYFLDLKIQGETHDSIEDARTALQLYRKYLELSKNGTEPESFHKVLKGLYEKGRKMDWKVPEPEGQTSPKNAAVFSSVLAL
UniProt Q9H6A9: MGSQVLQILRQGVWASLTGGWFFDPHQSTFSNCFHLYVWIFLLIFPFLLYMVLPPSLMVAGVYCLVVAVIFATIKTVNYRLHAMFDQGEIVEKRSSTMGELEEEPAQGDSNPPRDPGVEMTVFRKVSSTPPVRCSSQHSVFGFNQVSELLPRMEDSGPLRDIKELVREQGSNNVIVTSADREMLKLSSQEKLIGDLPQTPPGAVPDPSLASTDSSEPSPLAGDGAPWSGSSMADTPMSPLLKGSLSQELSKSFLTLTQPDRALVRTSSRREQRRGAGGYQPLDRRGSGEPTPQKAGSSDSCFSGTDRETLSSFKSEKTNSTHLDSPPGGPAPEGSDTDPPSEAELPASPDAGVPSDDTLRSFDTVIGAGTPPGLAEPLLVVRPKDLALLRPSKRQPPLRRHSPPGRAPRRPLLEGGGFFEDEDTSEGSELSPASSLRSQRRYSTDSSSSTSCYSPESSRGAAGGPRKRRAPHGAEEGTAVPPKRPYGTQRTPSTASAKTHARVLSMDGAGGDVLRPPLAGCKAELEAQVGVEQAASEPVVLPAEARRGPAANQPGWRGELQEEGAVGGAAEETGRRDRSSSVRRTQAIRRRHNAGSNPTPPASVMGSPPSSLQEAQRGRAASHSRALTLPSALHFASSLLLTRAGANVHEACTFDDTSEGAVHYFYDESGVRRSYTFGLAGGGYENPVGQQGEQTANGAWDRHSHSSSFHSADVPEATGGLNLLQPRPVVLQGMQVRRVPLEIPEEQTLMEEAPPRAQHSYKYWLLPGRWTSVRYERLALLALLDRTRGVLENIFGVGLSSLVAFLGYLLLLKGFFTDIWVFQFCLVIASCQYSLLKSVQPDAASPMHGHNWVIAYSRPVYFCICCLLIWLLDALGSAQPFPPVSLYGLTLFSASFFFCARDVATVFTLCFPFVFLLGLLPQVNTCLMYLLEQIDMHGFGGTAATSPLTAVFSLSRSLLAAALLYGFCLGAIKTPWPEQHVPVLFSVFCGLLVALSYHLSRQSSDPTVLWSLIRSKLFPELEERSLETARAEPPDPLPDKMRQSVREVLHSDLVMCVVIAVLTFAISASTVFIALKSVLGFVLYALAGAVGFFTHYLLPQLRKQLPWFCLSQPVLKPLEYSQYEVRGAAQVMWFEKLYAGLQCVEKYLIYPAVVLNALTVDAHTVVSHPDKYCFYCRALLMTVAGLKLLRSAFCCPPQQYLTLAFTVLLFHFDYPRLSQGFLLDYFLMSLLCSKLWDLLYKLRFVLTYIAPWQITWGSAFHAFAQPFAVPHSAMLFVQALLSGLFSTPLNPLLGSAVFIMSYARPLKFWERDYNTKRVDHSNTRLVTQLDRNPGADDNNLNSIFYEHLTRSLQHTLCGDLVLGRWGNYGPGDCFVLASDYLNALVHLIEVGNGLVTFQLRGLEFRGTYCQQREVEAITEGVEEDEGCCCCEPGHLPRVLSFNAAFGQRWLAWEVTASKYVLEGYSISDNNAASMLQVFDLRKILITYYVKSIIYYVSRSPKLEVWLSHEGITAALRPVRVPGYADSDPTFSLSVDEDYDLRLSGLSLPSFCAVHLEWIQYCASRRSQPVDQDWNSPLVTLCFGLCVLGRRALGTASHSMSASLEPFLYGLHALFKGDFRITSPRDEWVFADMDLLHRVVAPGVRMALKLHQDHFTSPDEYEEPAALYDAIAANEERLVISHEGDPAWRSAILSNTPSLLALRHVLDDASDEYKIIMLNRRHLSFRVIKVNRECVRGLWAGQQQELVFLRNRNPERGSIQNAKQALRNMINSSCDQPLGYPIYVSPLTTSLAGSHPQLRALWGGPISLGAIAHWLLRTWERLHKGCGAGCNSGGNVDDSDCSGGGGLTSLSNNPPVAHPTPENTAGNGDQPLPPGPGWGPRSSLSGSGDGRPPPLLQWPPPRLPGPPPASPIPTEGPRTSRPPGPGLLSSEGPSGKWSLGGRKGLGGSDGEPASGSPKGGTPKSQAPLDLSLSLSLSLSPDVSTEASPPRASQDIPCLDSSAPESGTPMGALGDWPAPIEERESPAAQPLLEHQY
UniProt Q9UBV8: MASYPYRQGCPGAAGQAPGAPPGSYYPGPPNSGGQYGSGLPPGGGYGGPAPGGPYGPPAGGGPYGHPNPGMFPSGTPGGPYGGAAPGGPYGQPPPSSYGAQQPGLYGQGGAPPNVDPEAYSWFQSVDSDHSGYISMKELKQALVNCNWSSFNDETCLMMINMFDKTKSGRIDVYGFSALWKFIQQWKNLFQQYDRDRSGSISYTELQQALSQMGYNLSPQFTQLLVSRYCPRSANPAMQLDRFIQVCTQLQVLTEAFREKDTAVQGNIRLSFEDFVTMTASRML

Some of the results follow.
Each target was assayed with COc1ccc(Cn2ccc3cc(C)c(C(=O)NO)cc32)cc1 (assay: dose-dependent thermal stabilisation call (2D-TPP, DLPTP, 10% FDR) (binary (1 = stabilised)); higher = stabilised by the compound). Details: system: HL-60 intact cells; concentration range 0.04-10 µM.
Procedure: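 2D thermal proteome profiling in intact HL-60 cells treated with BRD-3811 (0, 0.04, 0.29, 2, 10 uM) for 90 min at 37 C, then heated 3 min at one of 12 temperatures (42-63.9 C). Soluble protein was quantified by TMT10 MS. The value is the DLPTP call of the paper: dose-dependent thermal stabilisation over all temperatures at 10% FDR (F-test of a dose-response against a flat model); one experiment, one call per tested protein.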
PKMYT1 (UniProt Q99640) was tested, and the “dose-dependent thermal stabilisation call” value was inactive: 0.
PLA2G12A (UniProt Q9BZM1) was tested, and the “dose-dependent thermal stabilisation call” value was inactive: 0.
For PCYT2 (UniProt Q99447), the “dose-dependent thermal stabilisation call” value was inactive: 0.
With PLAU (UniProt P00749) the “dose-dependent thermal stabilisation call” value was inactive: 0.
PIK3CB (UniProt P42338) was tested, and the “dose-dependent thermal stabilisation call” value was inactive: 0.
PAN2 (UniProt Q504Q3) was tested, and the “dose-dependent thermal stabilisation call” value was inactive: 0.
With OXA1L (UniProt Q15070) the “dose-dependent thermal stabilisation call” value was inactive: 0.
With PCNXL3 (UniProt Q9H6A9) the “dose-dependent thermal stabilisation call” value was inactive: 0.
For PEF1 (UniProt Q9UBV8), the “dose-dependent thermal stabilisation call” value was inactive: 0.

Reference: the supplement of paper PMC7666118
